Here are results for 1 molecule from article PMC7026633.

Amino acid sequences for entries named in this document (tags omitted). A change or cut given only in a name is not applied to a line headed by its entry.
UniProt O43151: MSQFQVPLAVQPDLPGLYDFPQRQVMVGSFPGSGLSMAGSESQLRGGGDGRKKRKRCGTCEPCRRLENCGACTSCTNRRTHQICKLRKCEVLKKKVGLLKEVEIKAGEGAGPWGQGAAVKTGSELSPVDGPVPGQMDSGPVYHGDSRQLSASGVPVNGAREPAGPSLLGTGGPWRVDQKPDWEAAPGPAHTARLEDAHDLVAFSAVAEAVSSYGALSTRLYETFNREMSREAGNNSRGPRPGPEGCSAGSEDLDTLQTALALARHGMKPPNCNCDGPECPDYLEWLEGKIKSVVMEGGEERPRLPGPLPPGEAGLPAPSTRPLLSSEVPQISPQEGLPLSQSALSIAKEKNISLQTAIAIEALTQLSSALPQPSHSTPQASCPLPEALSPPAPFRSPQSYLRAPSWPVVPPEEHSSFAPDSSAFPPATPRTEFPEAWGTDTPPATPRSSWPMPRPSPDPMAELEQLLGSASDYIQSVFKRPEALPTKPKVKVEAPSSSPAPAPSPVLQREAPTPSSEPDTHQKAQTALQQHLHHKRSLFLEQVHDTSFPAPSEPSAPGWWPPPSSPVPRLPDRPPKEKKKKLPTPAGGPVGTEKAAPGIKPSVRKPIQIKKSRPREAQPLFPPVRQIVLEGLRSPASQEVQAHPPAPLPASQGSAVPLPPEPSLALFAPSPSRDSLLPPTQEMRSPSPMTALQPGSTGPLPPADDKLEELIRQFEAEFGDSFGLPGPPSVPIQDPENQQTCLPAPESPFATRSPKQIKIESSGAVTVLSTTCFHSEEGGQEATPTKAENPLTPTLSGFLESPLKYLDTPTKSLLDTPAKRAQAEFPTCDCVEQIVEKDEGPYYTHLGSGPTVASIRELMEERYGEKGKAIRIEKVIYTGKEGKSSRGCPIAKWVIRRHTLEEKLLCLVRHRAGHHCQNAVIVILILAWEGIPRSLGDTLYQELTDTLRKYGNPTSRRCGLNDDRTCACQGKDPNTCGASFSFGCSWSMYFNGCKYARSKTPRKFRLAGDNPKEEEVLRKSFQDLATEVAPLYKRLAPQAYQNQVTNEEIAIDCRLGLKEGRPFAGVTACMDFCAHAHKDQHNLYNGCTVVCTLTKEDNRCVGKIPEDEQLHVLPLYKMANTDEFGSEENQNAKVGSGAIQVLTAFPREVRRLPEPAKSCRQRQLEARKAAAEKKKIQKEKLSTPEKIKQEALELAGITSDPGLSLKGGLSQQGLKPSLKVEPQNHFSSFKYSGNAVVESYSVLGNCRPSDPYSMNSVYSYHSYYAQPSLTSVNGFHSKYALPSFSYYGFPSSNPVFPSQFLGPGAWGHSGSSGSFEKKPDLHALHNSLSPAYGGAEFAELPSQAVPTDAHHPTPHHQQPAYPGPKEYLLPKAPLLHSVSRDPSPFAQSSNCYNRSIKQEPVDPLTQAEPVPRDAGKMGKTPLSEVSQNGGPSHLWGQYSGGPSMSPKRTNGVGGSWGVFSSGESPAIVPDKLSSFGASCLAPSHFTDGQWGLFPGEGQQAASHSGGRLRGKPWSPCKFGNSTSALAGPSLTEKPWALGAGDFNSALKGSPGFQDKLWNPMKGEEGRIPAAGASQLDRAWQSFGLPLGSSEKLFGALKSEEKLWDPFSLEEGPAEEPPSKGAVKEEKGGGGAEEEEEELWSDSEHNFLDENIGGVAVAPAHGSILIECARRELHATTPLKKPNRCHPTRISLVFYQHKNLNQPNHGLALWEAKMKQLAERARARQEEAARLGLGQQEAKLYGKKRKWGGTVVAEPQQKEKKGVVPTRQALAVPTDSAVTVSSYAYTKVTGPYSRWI

No constants are given. Whether binding was seen depends on the method and setting. In cells and extracts the contact can be indirect. A yes stands for co-enrichment or nearness to the bait. Other partners may have been found.

This experiment has as its target Flag-tagged full length human Tet3 (SBP-N-terminal-Flag-hTet3-IRES-GFP) (human) (UniProt O43151). Put plainly: affinity purification with mass spectrometry; Flag-tagged full-length human Tet3 transiently expressed in HEK293; lysate in RIPA buffer incubated 2 h at 4°C with anti-Flag M2 affinity gel, washed three times with RIPA; co-precipitated proteins found by mass spectrometry.

B1: O-GlcNAc transferase (enzyme, UniProt O15294 1-1046)
chain: MASSVGNVADSTEPTKRMLSFQGLAELAHREYQAGDFEAAERHCMQLWRQEPDNTGVLLLLSSIHFQCRRLDRSAHFSTLAIKQNPLLAEAYSNLGNVYKERGQLQEAIEHYRHALRLKPDFIDGYINLAAALVAAGDMEGAVQAYVSALQYNPDLYCVRSDLGNLLKALGRLEEAKACYLKAIETQPNFAVAWSNLGCVFNAQGEIWLAIHHFEKAVTLDPNFLDAYINLGNVLKEARIFDRAVAAYLRALSLSPNHAVVHGNLACVYYEQGLIDLAIDTYRRAIELQPHFPDAYCNLANALKEKGSVAEAEDCYNTALRLCPTHADSLNNLANIKREQGNIEEAVRLYRKALEVFPEFAAAHSNLASVLQQQGKLQEALMHYKEAIRISPTFADAYSNMGNTLKEMQDVQGALQCYTRAIQINPAFADAHSNLASIHKDSGNIPEAIASYRTALKLKPDFPDAYCNLAHCLQIVCDWTDYDERMKKLVSIVADQLEKNRLPSVHPHHSMLYPLSHGFRKAIAERHGNLCLDKINVLHKPPYEHPKDLKLSDGRLRVGYVSSDFGNHPTSHLMQSIPGMHNPDKFEVFCYALSPDDGTNFRVKVMAEANHFIDLSQIPCNGKAADRIHQDGIHILVNMNGYTKGARNELFALRPAPIQAMWLGYPGTSGALFMDYIITDQETSPAEVAEQYSEKLAYMPHTFFIGDHANMFPHLKKKAVIDFKSNGHIYDNRIVLNGIDLKAFLDSLPDVKIVKMKCPDGGDNADSSNTALNMPVIPMNTIAEAVIEMINRGQIQITINGFSISNGLATTQINNKAATGEEVPRTIIVTTRSQYGLPEDAIVYCNFNQLYKIDPSTLQMWANILKRVPNSVLWLLRFPAVGEPNIQQYAQNMGLPQNRIIFSPVAPKEEHVRRGQLADVCLDTPLCNGHTTGMDVLWAGTPMVTMPGETLASRVAASQLTCLGCLELIAKNRQEYEDIAVKLGTDLEYLKKVRGKVWKQRISSPLFNTKQYTMELERLYLQMWEHYAAGNKPDHMIKPVEVTESA
On to B1, for which the binding entry is listed as “binds”.
